Primary screen of a compound library

Amino acid sequences for entries named in this document (tags omitted). Residues count along the entry.
UniProt P9WPC5, whole entry: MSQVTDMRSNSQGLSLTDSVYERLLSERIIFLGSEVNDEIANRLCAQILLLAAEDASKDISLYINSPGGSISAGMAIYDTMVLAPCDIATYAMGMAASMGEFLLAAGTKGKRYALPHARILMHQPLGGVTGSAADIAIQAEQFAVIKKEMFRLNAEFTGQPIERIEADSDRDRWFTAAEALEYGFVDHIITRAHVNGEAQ
UniProt P9WPC3, whole entry partner: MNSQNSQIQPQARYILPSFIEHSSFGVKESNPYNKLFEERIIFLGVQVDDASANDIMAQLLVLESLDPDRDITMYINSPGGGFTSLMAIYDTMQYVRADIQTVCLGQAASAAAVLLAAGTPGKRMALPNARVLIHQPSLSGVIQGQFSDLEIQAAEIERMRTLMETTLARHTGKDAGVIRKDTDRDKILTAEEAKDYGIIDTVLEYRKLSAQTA
UniProt Q4DA54, 1-478: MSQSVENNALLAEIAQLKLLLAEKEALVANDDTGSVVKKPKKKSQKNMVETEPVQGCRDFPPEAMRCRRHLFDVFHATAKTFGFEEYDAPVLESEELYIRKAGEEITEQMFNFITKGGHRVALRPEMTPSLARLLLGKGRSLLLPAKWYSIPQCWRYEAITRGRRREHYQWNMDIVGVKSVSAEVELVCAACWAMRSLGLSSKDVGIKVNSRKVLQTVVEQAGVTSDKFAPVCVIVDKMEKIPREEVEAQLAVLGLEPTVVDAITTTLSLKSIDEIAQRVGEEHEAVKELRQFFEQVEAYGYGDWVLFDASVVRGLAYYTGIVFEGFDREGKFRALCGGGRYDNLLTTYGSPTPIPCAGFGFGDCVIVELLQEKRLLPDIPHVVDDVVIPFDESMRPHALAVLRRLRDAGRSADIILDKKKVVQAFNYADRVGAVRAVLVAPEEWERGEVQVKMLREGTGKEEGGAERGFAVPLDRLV
UniProt I6X8D2, whole entry: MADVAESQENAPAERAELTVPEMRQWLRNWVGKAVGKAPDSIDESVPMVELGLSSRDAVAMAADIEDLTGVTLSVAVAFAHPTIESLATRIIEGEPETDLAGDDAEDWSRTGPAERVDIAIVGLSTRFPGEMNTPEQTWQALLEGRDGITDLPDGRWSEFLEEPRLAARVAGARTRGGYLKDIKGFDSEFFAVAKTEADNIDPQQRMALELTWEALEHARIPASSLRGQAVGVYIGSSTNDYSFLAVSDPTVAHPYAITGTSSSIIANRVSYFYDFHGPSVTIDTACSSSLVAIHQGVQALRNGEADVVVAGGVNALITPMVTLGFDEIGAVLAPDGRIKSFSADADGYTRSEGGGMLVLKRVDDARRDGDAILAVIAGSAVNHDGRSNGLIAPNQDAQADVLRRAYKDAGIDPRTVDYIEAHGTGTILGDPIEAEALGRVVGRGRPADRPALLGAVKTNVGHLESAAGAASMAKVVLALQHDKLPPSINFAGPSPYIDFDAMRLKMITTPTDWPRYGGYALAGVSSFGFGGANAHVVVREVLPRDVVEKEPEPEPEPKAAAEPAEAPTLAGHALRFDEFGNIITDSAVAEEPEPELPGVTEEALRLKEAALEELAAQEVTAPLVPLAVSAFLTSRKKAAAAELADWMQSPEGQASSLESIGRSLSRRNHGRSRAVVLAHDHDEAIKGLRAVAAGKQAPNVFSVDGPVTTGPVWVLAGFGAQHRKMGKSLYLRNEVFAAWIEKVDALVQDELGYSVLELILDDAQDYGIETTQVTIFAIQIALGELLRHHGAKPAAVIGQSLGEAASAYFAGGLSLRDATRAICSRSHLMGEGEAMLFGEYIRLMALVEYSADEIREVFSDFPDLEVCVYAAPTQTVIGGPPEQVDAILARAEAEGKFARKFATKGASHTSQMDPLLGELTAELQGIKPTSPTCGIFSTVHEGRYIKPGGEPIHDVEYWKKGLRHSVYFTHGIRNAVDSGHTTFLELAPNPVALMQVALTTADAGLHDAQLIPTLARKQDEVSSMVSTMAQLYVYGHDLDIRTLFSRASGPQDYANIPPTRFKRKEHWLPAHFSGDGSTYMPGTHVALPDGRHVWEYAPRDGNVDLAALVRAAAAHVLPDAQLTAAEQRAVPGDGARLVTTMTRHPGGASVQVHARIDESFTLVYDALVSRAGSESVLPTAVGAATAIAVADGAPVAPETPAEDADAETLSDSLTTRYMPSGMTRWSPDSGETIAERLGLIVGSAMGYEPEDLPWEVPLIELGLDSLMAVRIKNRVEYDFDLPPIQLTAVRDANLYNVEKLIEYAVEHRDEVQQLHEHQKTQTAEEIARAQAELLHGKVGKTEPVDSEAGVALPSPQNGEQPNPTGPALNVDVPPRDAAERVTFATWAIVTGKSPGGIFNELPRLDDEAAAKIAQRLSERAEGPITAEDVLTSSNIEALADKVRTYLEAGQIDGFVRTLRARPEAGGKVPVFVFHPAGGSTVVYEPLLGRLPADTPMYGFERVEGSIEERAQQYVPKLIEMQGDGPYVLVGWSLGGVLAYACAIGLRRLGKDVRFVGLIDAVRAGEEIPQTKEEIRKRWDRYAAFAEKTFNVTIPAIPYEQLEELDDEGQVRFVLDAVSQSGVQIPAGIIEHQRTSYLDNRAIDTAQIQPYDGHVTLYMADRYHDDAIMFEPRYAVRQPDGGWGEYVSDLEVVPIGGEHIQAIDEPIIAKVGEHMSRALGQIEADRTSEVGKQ
UniProt Q8IDJ8, 1-583: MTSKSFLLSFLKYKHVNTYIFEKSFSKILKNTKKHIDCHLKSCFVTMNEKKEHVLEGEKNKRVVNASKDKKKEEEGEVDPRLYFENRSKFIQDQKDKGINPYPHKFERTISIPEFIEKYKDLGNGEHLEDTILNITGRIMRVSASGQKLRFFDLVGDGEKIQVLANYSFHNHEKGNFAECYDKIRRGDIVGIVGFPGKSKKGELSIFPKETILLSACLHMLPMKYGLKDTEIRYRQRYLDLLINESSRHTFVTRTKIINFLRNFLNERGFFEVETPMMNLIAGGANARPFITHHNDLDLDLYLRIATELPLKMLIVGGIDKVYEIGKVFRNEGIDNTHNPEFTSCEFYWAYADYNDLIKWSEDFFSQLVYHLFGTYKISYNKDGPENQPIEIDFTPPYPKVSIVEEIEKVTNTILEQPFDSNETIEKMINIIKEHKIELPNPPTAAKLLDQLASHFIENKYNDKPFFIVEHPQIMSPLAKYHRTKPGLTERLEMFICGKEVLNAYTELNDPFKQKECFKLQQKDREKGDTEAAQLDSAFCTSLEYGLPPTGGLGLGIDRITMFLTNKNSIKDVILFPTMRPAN

The values are deposited in ChEMBL (CHEMBL3988442, “University of Dundee, Small-Polar-MMV Screening Library” (2021)).

ClpP1P2: 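ClpP1P2, Mycobacterium tuberculosis (UniProt P9WPC5 and UniProt P9WPC3). Protease assay of ClpP1P2, read by the AMC dye that it sets free. Tested at 50 µM. Direction is inferred from only a few compounds that gave an IC50; most scored high, so higher reads as stronger inhibition. Most other retested compounds had strongly negative values. About 69,000 compounds were tested under these conditions; 0.015% (about 10) showed 50% or more at least once.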
Toxoplasma: 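Assay of Toxoplasma gondii numbers, read through their beta-galactosidase reporter with a colour substrate. Concentration: 10 µM. The record gives no direction; the compounds picked for IC50 retests had high values, so higher reads as fewer parasites. Size under these conditions: about 67,000 compounds, about 260 of them at 50% or above in at least one test.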
TcHisRS: 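Histidine-tRNA ligase, Trypanosoma cruzi CL Brener (UniProt Q4DA54). Enzyme assay of histidyl-tRNA synthetase; the read-out is not stated. Tested at 30 µM. The record gives no direction; compounds that gave an IC50 in retests scored well above the rest, so higher reads as stronger inhibition. About 69,000 compounds were tested under these conditions; 0.045% (about 31) showed 50% or more at least once.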
Pks13 thioesterase: 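Polyketide synthase Pks13, Mycobacterium tuberculosis (UniProt I6X8D2). Enzyme assay of the thioesterase domain of polyketide synthase 13; the read-out is not stated. Concentration: 30 µM. Higher reads as stronger inhibition (inferred from which compounds were picked for retests). Of about 67,000 compounds tested this way, about 300 (0.46%) reached 50% or more in at least one test.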
PfKRS1: 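Enzyme assay of the cytosolic lysyl-tRNA synthetase in 384-well plates, read by luminescence. Target: Lysine-tRNA ligase, Plasmodium falciparum 3D7 (UniProt Q8IDJ8). Tested at 30 µM. Higher reads as stronger inhibition, judged from the few compounds that gave an IC50. About 69,000 compounds were tested under these conditions; 0.071% (about 49) showed 50% or more at least once.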

Each number is a percent effect as filed. The controls that fix the scale are not given in the record; negative values are as filed. This is an unselected part of the compounds tested. A dash means the value is not listed here; it may have been measured.

| # | SMILES | ClpP1P2 | Toxoplasma | TcHisRS | Pks13 thioesterase | PfKRS1 |
|---|---|---|---|---|---|---|
| 1 | `Cc1ccc(OCC(=O)NS(=O)(=O)Cc2ccccc2)cc1` | 1.269 | 4.937 | 0 | -21.47 | 8.052 |
| 2 | `COCC1CN(C(=O)c2ccco2)Cc2cn(C)nc21.O=C(O)C(F)(F)F` (centres unmarked) | - | -36.34 | - | - | - |
| 3 | `CS(=O)(=O)N1CCC(NC(=O)COc2ccc(Br)cc2Cl)CC1` | -2.289 | 11.72 | 2.564 | -17.31 | -2.291 |
| 4 | `Cn1cccc1CN1CCC2(CCCN(C(=O)c3cccnc3)C2)CC1.O=C(O)C(F)(F)F.O=C(O)C(F)(F)F` | - | 11.15 | - | - | - |
| 5 | `CN(C)CC1CCCCN1C(=O)c1ccc(N2CCOCC2)cc1` (centres unmarked) | 0.4243 | -7.747 | 10 | 4.324 | 7.499 |
| 6 | `CC(Cn1ccnc1)NC(=O)NCCc1ccccn1` (centres unmarked) | 22.45 | 12.28 | -1.141 | -27.33 | 7.895 |
| 7 | `CC(=O)N1CCO[C@@H]2CN(C(=O)NCc3cccnc3)CC[C@@H]2C1` | 7.311 | - | 9.195 | -14.34 | 9.246 |
| 8 | `Cc1cnc(N2CCC3(C2)C(=O)N(C)CCN3Cc2cccnc2)nc1` (centres unmarked) | -6.463 | - | 3.96 | -28.73 | 3.744 |
| 9 | `COc1c(C)cnc(CN(C)C(=O)c2cccc(NC(N)=O)c2)c1C` | -13.31 | -75.38 | 4.938 | -6.146 | 4.949 |
| 10 | `O=C(CCc1ccc(Br)cc1)NCc1nnc[nH]1` | -1.19 | 2.935 | -0.9804 | -29.49 | 4.208 |
| 11 | `CCc1nnc(Nc2cccc(C3CCN(C(=O)CN(C)C)CC3)n2)s1` | -0.02051 | 19.39 | 5.243 | -4.22 | -0.251 |
| 12 | `c1ccc(COCCN2CCc3[nH]cnc3C2c2ccco2)cc1` (centres unmarked) | -12.31 | -0.3706 | 1.19 | -16.54 | 3.001 |
| 13 | `CC(C)(C)OC(=O)N1CSC[C@@H]1C(=O)NCc1ccc(C#N)cc1` | 4.601 | 0.3846 | 3.665 | -44.01 | 3.666 |
| 14 | `C=C(C)CN(CC)S(=O)(=O)c1c(F)cc(NC(C)=O)cc1F` | 1.115 | -7.255 | 9.497 | -22.3 | 2.968 |
| 15 | `COc1ccc(CN2CCC3(CCCNC3)C2)cc1Cn1cccn1` (centres unmarked) | 9.717 | -3.325 | 4.523 | -2.701 | 2.562 |
| 16 | `CC(C)CN1CCc2c(CN(C)Cc3ccco3)cncc2C1.Cl.Cl.Cl` | - | -0.9663 | - | - | - |
| 17 | `O=C(NCCCn1ccnc1)N1CCCC1c1ccncc1` (centres unmarked) | -20.07 | 0.7709 | 2.075 | -26.34 | 1.869 |
| 18 | `CN(C)c1cc2c(nn1)CCN(C(=O)Cc1ccc3c(c1)CCC3)C2` | -16.1 | -3.521 | 17.3 | -51.59 | -0.02008 |
| 19 | `CC(C(=O)N1CCCN(c2ncccc2C#N)CC1)n1ccnc1` (centres unmarked) | 4.667 | 5.838 | 2.273 | 2.906 | -1.005 |
| 20 | `Cc1noc(CNC(=O)C(C)(C)NC(=O)OC(C)(C)C)n1` | 12.24 | 5.791 | 2.062 | -15.67 | -1.861 |
| 21 | `CN1CCCN(C[C@H]2C[C@H](CO)CN(Cc3cccnc3N)C2)CC1` | 15.46 | -2.152 | 0 | -33.94 | -1.434 |
| 22 | `c1sc(C2CCCC2)nc1CN1CCn2c(nnc2C2CC2)C1` | 4.432 | 7.754 | -1.149 | -14.59 | -1.918 |
| 23 | `CCc1cnc(CNC(=O)NC2CC(C)(C)OC2(C)C)s1` (centres unmarked) | -10.5 | -7.513 | 1.587 | -10.6 | -1.021 |
| 24 | `COC(=O)N1CCC(c2nnc(Cn3ccnc3)n2C)CC1` | 20.16 | 2 | 8.04 | -0.1261 | 1.87 |
| 25 | `CCN1CCc2cc(C(=O)N(C)C)c(NCC3CC3)nc2CC1` | -10.88 | 20.2 | 5.607 | -12.47 | 5.255 |
| 26 | `CCN(Cc1ccco1)C(=O)NCC(C)N1CCc2sccc2C1` (centres unmarked) | 13.47 | 13.89 | 8.772 | 5.533 | 0.189 |
| 27 | `CC(=O)N1CCC(Nc2ccc(Br)cc2C#N)C1` (centres unmarked) | -21.36 | 5.595 | -0.5405 | -4.419 | 0.4134 |
| 28 | `NC(=O)CN1CCCCC1c1nc(N)ncc1-c1cccc(F)c1` (centres unmarked) | -10.73 | 12.25 | 5.993 | - | -0.6009 |
| 29 | `COc1ccc(C2CCCCCN2Cc2cn(C)nc2C)cc1` (centres unmarked) | -1.259 | 23.15 | 10.55 | 5.021 | 4.291 |
| 30 | `C(=C/c1ccccc1)\CNCC1CCc2nncn2C1` (centres unmarked) | 10.27 | - | 13.99 | -20.27 | 3.794 |
| 31 | `CC(C)NC(=O)C1c2c(ncn2C(C)C)CCN1Cc1ccccc1.O=C(O)C(F)(F)F` (centres unmarked) | - | 9.746 | - | - | - |
| 32 | `CCOCC1CN(C(=O)N2CCCC2)Cc2cnn(CC)c21` (centres unmarked) | 4.589 | -6.176 | 7.563 | -9.862 | 6.438 |
| 33 | `CN(C)CC1CN(Cc2ccc(F)cc2)Cc2nccn2C1.O=C(O)C(F)(F)F.O=C(O)C(F)(F)F` (centres unmarked) | - | -5.235 | - | - | - |
| 34 | `c1cnc(N2C[C@@H]3CC[C@H](C2)N(Cc2ccsc2)C3)nc1` | 7.391 | - | 4.348 | 0.4765 | 4.924 |
| 35 | `CCCN1C(=O)C2(CCCCC2)NC1c1cn(C)c(=O)n(C)c1=O` (centres unmarked) | 2.912 | -2.5 | 5 | -3.409 | 3.959 |
| 36 | `CCCn1[nH]cc/c1=N\C(=O)CN1CCCC1Cn1cccn1` (centres unmarked) | -3.799 | 11.08 | 3.59 | -5.125 | 0.9116 |
| 37 | `CCc1nc(C2CCCN(C(=O)c3ccc(F)cc3)C2)no1` (centres unmarked) | -27.93 | -11.46 | 5.539 | -4.23 | -1.666 |
| 38 | `CNc1cccc(CC2COCCN(C(=O)c3cncs3)C2)n1` (centres unmarked) | -27.76 | 10.84 | -0.3831 | 2.604 | 0.2705 |
| 39 | `CC(C)N1CCC2(CC1)CC(NS(C)(=O)=O)c1ccccc1O2` (centres unmarked) | -12.46 | - | 6.542 | -4.422 | 1.435 |
| 40 | `COCCN1C[C@@H]2CN(c3cnccn3)C[C@@H]2C1=O` | -2.53 | - | 6.186 | -4.857 | 9.317 |
| 41 | `CS(=O)(=O)c1ccc(OCCNCc2cccc(Cl)c2)cc1` | -9.669 | 8.997 | 5.102 | -19.29 | -1.928 |
| 42 | `O=C(O)C(F)(F)F.O=C(O)C(F)(F)F.[H][C@@]12CCN(CC3CC3)[C@@]1([H])CCN2Cc1ccc2c(c1)OCO2` | - | 2.598 | - | - | - |
| 43 | `C[C@@H]1C(=O)NC[C@H]2CN(CCc3ccccc3)C[C@H]21` | 11.14 | - | -0.7519 | 3.118 | 1.321 |
| 44 | `Cc1nn(C)c(C)c1OCC(=O)NCc1cccc(C(=O)O)c1` | -3.392 | 1.61 | 2.128 | -18.27 | 4.5 |
| 45 | `[H][C@@]12CS(=O)(=O)C[C@]1([H])N(C(=O)c1ccc3c(c1)ncn3C)CCN2CCO` | - | -0.7092 | - | - | - |
| 46 | `CC(C)N1CCCC(CNC(=O)c2ccnc(-n3ccnc3)c2)C1` (centres unmarked) | -2.046 | 16.76 | -8.772 | -15.94 | 2.386 |
| 47 | `CC(C)Nc1nc2c(cc1C(=O)NCC1CC1)CCNCC2` | -272.8 | - | 0.5405 | 51.72 | -0.6882 |
| 48 | `O=C(O)C(F)(F)F.[H][C@@]12CN(Cc3nccs3)C[C@]1([H])CN(C(=O)N1CCOCC1)C2` | - | -3.706 | - | - | - |
| 49 | `Cc1csc(C(Cc2ccsc2)NC(=O)c2cc(=O)n(C)c(=O)n2C)n1` (centres unmarked) | -5.141 | 9.302 | 4.135 | -6.112 | 2.319 |
| 50 | `CO[C@H]1CCN(C(=O)c2cc(C)on2)[C@H]1Cc1ccncc1` | -7.175 | -6.546 | 3.883 | -19.66 | 6.507 |
| 51 | `Cc1cc(C)cc(OCCC(=O)N2CCOCC2c2ncon2)c1` (centres unmarked) | -1.851 | 2.908 | 1.916 | -6.269 | -3.737 |
| 52 | `CCN(CC(=O)NC)S(=O)(=O)N1CCCCC1` | 9.633 | 2.001 | 4.233 | -23.12 | 1.839 |
| 53 | `CC(C)S(=O)(=O)NCC1CCCN(C(=O)c2cccnc2)C1` (centres unmarked) | 1.466 | 1.533 | 1.653 | -7.491 | 7.059 |
| 54 | `CNC(=O)c1ccc(C2CN(C(=O)c3scnc3C)CCO2)nc1` (centres unmarked) | 7.925 | 11.6 | 9.574 | 10.03 | 3.087 |
| 55 | `COc1c(F)cccc1C(=O)N(C)Cc1nc(-c2ccccn2)no1` | -8.319 | 0.9577 | 3.279 | -36.18 | 8.587 |
| 56 | `c1cncc(CN2Cc3nccn3CC(Cn3cccn3)C2)c1` (centres unmarked) | 3.729 | - | 2.21 | -5.257 | 6.746 |
| 57 | `CCc1c(C(=O)NC2CCS(=O)(=O)C2)cnn1-c1ccc(F)cc1` (centres unmarked) | 13.11 | - | -0.7519 | -48.49 | 1.766 |
| 58 | `Cc1nc(CN2CCC(CNC(=O)C3CCOC3)CC2)oc1C` (centres unmarked) | -7.916 | -4.928 | -9.302 | 4.914 | -0.723 |
| 59 | `Cl.NCCNS(=O)(=O)Cc1ccc(Br)cc1` | - | -38.64 | - | - | - |
| 60 | `CCn1nc2c(cc1=O)CN(CCOc1ccccc1C#N)CC2` | -17.49 | -13.87 | 12.42 | 27.21 | 7.294 |
| 61 | `COc1cc(C)cc(C(C(=O)O)N(C)Cc2ccncc2C)c1OC` (centres unmarked) | -13.33 | 0.5977 | 6.341 | -18.29 | 3.266 |

The last 7 entries again:

SMILES,ClpP1P2,Toxoplasma,TcHisRS,Pks13 thioesterase,PfKRS1
COc1c(F)cccc1C(=O)N(C)Cc1nc(-c2ccccn2)no1,-8.319,0.9577,3.279,-36.18,8.587
c1cncc(CN2Cc3nccn3CC(Cn3cccn3)C2)c1 (centres unmarked),3.729,-,2.21,-5.257,6.746
CCc1c(C(=O)NC2CCS(=O)(=O)C2)cnn1-c1ccc(F)cc1 (centres unmarked),13.11,-,-0.7519,-48.49,1.766
Cc1nc(CN2CCC(CNC(=O)C3CCOC3)CC2)oc1C (centres unmarked),-7.916,-4.928,-9.302,4.914,-0.723
Cl.NCCNS(=O)(=O)Cc1ccc(Br)cc1,-,-38.64,-,-,-
CCn1nc2c(cc1=O)CN(CCOc1ccccc1C#N)CC2,-17.49,-13.87,12.42,27.21,7.294
COc1cc(C)cc(C(C(=O)O)N(C)Cc2ccncc2C)c1OC (centres unmarked),-13.33,0.5977,6.341,-18.29,3.266